Data from the supplement of paper PMC10849652.
The other results are listed elsewhere or left out.

Sequences of proteins named here, by UniProt entry; tags and fusion partners are left off. A change or cut given only in a name is not applied to a line headed by its entry.
UniProt P30939: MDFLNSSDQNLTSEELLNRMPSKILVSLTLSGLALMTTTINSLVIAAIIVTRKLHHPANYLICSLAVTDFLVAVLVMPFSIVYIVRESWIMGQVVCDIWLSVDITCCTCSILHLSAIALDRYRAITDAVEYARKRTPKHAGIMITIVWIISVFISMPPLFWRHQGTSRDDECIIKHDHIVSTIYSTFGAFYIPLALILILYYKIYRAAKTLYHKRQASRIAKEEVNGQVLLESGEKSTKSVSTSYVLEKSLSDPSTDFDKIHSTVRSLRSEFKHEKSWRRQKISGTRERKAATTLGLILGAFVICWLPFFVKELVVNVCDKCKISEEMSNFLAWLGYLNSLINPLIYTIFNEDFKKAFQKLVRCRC
UniProt Q8N6C5: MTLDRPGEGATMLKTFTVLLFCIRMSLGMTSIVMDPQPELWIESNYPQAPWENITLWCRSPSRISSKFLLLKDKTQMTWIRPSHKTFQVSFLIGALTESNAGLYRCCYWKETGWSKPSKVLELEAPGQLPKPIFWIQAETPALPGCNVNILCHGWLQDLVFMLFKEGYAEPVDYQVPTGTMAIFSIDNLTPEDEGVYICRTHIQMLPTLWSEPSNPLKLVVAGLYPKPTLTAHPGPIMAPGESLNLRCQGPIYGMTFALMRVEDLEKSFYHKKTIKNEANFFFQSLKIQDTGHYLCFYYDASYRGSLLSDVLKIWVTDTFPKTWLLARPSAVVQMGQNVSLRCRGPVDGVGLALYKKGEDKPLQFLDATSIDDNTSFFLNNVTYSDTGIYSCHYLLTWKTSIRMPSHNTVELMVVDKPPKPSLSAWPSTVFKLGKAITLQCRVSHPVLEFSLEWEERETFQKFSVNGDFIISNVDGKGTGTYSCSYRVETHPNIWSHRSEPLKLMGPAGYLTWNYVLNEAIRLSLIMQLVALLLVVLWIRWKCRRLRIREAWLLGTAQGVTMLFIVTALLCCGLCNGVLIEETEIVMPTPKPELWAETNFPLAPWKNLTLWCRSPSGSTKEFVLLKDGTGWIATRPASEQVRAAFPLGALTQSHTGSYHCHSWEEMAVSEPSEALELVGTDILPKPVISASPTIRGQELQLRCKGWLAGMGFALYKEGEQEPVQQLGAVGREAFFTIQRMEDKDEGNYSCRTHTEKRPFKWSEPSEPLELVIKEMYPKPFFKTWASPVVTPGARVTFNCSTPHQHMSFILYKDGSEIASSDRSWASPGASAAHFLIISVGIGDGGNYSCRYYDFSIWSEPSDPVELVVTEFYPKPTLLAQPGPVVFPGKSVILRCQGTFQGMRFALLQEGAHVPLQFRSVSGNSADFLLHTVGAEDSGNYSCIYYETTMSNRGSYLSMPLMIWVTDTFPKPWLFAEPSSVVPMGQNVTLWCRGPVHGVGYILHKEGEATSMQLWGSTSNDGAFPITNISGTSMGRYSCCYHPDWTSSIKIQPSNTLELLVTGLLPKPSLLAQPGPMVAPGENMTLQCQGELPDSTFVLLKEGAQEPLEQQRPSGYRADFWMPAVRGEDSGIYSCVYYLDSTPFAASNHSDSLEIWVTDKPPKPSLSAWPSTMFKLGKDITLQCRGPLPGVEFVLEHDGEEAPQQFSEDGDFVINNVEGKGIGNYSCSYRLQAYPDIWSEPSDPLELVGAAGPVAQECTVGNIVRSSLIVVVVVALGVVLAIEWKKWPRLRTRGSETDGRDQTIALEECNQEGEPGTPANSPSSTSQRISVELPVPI
UniProt Q9NQC8: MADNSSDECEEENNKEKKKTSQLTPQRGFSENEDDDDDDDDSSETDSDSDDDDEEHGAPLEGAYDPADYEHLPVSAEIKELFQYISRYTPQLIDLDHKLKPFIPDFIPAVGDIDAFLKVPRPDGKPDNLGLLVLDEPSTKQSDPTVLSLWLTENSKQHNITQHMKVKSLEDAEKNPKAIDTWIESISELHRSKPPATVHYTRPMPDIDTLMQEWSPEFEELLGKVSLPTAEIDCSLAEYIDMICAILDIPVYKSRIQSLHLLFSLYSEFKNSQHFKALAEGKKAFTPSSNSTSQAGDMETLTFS
UniProt P50213: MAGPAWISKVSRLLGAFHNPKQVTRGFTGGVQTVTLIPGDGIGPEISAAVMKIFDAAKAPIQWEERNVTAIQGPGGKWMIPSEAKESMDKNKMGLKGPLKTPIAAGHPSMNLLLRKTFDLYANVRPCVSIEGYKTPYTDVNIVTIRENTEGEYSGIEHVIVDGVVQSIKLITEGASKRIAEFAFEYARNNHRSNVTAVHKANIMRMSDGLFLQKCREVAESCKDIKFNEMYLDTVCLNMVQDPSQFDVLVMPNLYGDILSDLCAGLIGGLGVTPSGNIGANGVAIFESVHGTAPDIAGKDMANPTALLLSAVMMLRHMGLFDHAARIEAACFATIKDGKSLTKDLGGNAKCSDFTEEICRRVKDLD
UniProt O14879: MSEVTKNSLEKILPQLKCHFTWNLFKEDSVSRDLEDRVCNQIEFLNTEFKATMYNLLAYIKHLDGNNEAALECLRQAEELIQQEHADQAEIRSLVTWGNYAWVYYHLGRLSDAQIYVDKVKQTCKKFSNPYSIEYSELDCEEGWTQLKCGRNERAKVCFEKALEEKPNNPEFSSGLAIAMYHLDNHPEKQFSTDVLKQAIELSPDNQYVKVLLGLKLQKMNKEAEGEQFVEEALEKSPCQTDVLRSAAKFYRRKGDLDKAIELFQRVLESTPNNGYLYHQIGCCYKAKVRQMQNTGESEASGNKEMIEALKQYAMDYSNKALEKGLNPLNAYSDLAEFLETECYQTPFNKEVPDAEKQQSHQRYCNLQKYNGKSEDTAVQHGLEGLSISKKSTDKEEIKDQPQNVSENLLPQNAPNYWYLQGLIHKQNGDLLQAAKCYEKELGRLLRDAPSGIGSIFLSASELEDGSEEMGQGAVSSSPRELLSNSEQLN
UniProt Q14773: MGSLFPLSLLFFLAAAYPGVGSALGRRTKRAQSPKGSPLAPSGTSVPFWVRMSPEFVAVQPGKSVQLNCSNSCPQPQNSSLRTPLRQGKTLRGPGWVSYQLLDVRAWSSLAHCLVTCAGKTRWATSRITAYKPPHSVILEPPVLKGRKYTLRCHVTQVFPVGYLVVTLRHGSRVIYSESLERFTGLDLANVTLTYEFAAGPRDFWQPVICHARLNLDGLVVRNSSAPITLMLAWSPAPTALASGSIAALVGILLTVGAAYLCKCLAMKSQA
UniProt P38935: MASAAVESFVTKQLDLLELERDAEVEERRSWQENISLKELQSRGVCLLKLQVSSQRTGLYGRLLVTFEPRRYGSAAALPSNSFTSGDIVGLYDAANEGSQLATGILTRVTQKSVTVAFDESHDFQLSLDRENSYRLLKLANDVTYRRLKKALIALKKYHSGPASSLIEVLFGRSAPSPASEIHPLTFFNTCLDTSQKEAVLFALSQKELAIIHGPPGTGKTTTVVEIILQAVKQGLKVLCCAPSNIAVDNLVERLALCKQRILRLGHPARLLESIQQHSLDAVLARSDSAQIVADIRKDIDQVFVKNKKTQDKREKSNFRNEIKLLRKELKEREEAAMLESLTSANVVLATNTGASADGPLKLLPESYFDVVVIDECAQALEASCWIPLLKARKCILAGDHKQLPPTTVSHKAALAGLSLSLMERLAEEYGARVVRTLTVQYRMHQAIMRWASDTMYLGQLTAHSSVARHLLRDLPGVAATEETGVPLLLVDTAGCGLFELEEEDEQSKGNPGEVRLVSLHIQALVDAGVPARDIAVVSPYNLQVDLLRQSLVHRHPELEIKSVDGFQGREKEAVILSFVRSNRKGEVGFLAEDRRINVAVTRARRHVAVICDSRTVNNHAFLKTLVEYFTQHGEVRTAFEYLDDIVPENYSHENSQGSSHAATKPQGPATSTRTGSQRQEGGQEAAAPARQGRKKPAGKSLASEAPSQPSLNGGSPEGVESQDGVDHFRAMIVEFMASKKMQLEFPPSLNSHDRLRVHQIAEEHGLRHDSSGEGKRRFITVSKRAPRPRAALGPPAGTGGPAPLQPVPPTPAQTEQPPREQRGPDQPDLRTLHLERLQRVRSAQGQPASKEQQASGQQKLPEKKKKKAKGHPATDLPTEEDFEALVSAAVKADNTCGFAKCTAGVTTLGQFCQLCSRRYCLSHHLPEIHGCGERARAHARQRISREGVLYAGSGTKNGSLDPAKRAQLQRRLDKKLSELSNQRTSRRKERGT
UniProt P22304: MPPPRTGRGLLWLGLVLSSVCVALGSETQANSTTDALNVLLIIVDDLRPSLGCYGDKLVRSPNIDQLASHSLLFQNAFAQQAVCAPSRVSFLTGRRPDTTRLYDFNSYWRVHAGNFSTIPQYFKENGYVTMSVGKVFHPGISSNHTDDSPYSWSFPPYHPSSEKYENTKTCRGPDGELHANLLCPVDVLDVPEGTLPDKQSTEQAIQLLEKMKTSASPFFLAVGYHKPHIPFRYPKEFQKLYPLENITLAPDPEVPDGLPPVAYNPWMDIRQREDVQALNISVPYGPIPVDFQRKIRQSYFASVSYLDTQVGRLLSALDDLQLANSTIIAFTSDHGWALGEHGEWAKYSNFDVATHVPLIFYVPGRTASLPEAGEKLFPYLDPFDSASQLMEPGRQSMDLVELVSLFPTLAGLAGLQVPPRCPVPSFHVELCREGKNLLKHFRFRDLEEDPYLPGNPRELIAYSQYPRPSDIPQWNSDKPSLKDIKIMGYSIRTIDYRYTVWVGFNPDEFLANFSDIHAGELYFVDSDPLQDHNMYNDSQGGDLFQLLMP
UniProt Q9H7X7: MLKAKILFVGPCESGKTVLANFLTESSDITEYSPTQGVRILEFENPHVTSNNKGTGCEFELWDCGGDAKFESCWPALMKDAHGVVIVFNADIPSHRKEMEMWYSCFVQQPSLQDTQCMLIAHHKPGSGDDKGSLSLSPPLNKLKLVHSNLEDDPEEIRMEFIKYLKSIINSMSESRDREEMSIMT
UniProt Q96D96: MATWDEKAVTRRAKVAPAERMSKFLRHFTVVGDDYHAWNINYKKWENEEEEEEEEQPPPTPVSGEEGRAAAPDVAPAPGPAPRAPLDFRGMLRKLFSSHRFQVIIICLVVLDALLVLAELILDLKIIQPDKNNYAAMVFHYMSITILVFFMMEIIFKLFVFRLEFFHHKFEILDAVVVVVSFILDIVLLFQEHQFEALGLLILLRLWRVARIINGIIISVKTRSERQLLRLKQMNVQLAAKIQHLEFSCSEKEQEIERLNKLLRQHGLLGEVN
UniProt Q9H2S9: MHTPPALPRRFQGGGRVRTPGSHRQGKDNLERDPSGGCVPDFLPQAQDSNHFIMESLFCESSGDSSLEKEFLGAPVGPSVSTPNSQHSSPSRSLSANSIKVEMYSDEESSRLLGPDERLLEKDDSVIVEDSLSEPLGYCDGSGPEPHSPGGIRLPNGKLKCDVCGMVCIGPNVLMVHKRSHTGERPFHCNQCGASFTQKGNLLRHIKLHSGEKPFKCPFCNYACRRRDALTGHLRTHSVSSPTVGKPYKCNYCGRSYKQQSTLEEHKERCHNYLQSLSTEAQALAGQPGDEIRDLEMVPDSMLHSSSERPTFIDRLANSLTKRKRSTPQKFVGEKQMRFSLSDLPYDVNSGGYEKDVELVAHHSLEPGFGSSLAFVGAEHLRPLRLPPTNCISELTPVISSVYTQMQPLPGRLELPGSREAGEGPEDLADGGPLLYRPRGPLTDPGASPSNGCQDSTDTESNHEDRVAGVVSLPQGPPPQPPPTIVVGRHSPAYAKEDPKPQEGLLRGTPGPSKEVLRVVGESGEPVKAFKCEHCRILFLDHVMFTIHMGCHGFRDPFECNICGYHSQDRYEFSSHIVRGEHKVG
UniProt Q92598: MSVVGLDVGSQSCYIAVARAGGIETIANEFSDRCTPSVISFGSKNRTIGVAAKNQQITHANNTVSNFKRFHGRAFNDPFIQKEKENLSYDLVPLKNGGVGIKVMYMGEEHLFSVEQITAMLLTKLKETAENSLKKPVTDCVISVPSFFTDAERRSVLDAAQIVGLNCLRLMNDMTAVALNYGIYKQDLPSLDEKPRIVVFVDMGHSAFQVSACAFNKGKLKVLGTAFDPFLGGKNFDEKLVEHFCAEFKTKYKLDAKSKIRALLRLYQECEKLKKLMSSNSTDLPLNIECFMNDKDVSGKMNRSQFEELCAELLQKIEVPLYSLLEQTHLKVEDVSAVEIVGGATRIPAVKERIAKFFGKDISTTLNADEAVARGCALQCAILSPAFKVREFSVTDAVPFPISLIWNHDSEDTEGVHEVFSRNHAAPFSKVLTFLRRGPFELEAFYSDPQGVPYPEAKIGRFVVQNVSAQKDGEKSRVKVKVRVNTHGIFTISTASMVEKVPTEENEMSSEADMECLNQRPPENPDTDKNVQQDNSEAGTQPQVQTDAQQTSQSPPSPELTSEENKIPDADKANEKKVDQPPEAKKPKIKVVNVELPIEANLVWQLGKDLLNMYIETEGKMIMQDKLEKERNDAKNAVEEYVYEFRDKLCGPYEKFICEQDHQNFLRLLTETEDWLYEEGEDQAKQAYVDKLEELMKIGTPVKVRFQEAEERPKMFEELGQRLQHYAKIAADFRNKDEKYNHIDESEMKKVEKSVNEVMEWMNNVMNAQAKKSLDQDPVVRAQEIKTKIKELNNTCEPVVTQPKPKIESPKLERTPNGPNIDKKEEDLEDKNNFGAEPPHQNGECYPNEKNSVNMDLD

Compound: C1=CC=C2C(=C1)C3=NNC4=CC=CC(=C43)C2=O
Assay: log2 fold change, soluble protein after heating vs DMSO (PISA); higher = thermal stabilisation; K562 lysate, 10 uM; active = over 0.2 and 3.5 SD of the protein, either way, in both replicates (recomputed)
How it was run: (§1)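 Thermal stability, expressed as log-two fold change relative to solvent controls, is given from duplicates. Crude K562 extract in PBS pH 7.4 with 1 mM MgCl2, at 1 mg/mL protein, was treated with 10 μM compound for 30 min and heated in aliquots for 3 min across 48°C-58°C. After pooling, adjustment to 0.5% NP-40 at 4°C and centrifugation at 21,000xg for 90 min, supernatant protein was measured by TMTpro 16plex LC-MS/MS with channel sums equalised.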

log2 fold change, inactive:
HTD2 (UniProt P86397) 0.084
IMPDH2 (UniProt H0Y4R1) -0.029
ICMT (UniProt O60725) -0.011
IFT122 isoform 5 (UniProt Q9HBG6) -0.144
HTR1F (UniProt P30939) -0.033
HYDIN (UniProt Q4G0P3) 0.036
IGSF1 isoform 4 (UniProt Q8N6C5) -0.171
IFT46 isoform 2 (UniProt Q9NQC8) 0.135
IDH3A isoform 2 (UniProt P50213) 0.082

Compound: C1CCN(C1)C(=O)NC2=CC=CC(=C2)NC3=NC=C(C(=N3)NCCC4=CN=CN4)Br
Assay: as above
How it was run: as §1

log2 fold change, inactive:
IFIT3 (UniProt O14879) 0.397
HYOU1, A0A494C039 -0.054
ICE1 (UniProt Q9Y2F5) 0.051
ICAM4 (UniProt Q14773) -0.082
HTD2 (UniProt P86397) 0.075
IMPDH2 (UniProt H0Y4R1) 0.099
IGHMBP2 (UniProt P38935) 0.097
IDS (UniProt P22304) 0.152
IL17RA (UniProt Q96F46) 0.206
IFIH1 (UniProt Q9BYX4) -0.033
IFT22 (UniProt Q9H7X7) -0.063
IFT57 (UniProt Q9NWB7) 0.093
ICMT (UniProt O60725) -0.197
HVCN1 (UniProt Q96D96) -0.13
HUWE1 isoform 2 (UniProt Q7Z6Z7) 0.235
IGKC (UniProt P01834) -0.095
HYDIN (UniProt Q4G0P3) -0.054
IGSF1 isoform 4 (UniProt Q8N6C5) 0.096
IKZF4 (UniProt Q9H2S9) 0.01
IFT46 isoform 2 (UniProt Q9NQC8) 0.016
HSPH1 isoform 2 (UniProt Q92598) -0.212
HUWE1, A0A087X1S3 -0.129
IDH3A isoform 2 (UniProt P50213) -0.029
ING2 (UniProt Q9H160) 0.03
